According to patent US20180092866A1, “SUBSTITUTED N-([1,1'-BIPHENYL]-3-YL)-[1,1'-BIPHENYL]-3-CARBOXAMIDE ANALOGS AS INHIBITORS FOR BETA-CATENIN/B-CELL LYMPHOMA 9 INTERACTIONS” (University of Utah Research Foundation, priority 2015, published 2018):
At least one compound was matched to its structure with a doubt left.

By UniProt entry, the sequences of proteins in these tests, tags left out. Where a name states a change or a piece, a line headed by the entry shows the natural chain unless it says otherwise.
UniProt O00512: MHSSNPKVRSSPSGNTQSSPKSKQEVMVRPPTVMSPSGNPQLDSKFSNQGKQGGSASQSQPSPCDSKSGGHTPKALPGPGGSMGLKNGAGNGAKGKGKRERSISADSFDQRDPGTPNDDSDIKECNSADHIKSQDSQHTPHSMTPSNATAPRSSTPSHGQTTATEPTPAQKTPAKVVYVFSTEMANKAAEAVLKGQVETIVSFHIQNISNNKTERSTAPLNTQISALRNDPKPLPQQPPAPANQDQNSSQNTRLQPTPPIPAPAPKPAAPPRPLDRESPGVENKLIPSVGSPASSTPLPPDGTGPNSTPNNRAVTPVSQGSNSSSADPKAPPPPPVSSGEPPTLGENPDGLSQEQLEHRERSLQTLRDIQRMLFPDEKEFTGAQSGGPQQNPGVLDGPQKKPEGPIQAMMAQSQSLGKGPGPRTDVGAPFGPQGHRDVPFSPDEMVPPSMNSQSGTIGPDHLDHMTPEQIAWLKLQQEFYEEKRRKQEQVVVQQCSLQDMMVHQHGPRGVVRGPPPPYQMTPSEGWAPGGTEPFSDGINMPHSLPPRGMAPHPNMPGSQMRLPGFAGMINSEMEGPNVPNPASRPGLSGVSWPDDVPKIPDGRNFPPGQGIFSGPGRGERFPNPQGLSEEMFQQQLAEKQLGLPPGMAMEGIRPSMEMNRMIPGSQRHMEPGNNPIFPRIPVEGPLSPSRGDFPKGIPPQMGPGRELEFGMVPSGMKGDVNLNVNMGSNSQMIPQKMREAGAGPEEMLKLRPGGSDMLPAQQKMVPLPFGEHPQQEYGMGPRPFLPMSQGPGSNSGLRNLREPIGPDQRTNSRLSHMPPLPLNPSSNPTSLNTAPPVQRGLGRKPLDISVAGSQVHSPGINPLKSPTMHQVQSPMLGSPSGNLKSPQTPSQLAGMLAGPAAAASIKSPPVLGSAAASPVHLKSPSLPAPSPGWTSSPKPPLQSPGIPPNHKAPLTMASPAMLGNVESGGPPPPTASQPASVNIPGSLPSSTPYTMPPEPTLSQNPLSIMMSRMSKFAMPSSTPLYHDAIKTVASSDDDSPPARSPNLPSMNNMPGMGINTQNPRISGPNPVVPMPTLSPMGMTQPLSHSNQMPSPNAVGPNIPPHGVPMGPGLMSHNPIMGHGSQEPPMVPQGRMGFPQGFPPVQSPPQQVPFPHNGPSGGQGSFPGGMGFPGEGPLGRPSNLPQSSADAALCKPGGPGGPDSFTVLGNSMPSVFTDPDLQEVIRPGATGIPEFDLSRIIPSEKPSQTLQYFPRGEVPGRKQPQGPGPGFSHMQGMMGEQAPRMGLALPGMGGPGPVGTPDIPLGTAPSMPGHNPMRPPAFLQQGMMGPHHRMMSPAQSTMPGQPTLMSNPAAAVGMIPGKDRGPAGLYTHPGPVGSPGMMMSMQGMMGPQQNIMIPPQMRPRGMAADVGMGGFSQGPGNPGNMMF

Columns and labels:
[1] = tested on: β-catenin/E-cadherin PPIs in HCT116 cells; experiment: Co-immunoprecipitation, β-catenin/E-cadherin; type: cell-based, human; details: concentrations sufficient to inhibit β-catenin/BCL9 PPIs
[2] = tested on: AXIN2, LGR5, LEF1, and cyclin D1 transcription in MDA-MB-231 cells; experiment: Quantitative real-time PCR, MDA-MB-231 cells; type: cell-based, human; details: 24 h
Protocol: SW480 and MDA-MB-231 cells at 1×10^6/mL were treated with different concentrations of 21 for 24 h. Total RNAs were extracted with TRIzol ([…], Life Technologies), and the cDNA was synthesized with the superscript III first-strand kit (18080-051, Invitrogen). Quantitative PCR (qPCR) was performed using the iQ™ SYBR green supermix kit (170-8880, BIO-RAD) on an iQ^5 multicolor real-time PCR reaction system (BIO-RAD). The threshold cycle (CT) values were normalized to that of internal reference GAPDH. The primer pairs for human GAPDH were forward: 5′-[…]-3′, and reverse: 5′-[…]-3′, for human AXIN2 forward: 5′-[…]-3′ and reverse: 5′-[…]-3′, for human LGR5 forward: 5′-[…]-3′ and reverse: 5′-[…]-3′, for human LEF1 forward: 5′-[…]-3′ and reverse: 5′-[…] […]-3′, and for human cyclin D1 forward: 5′-[…]-3′, and revers: 5′-[…]-3′. Experiments were performed in triplicate.

[3] = molecular target: T1, human BCL9 (residues 350-375) (Homo sapiens, UniProt O00512); experiment: Isothermal titration calorimetry, BCL9; type: binding; details: ITC
T1 construct: H-^350[…]^375-NH2; purchased InnoPep Inc
T1 sequence (O00512 350-375 limits assumed): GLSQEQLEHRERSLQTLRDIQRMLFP

[4] = molecular target: T2, β-catenin/E-cadherin PPIs (Homo sapiens, UniProt P35222); experiment: AlphaScreen selectivity assay, β-catenin/BCL9 versus β-catenin/E-cadherin; type: binding
T2 construct: β-Catenin or its mutants (residues 138-686) was cloned into a pET-28b vector; made in house; host or cells: E. coli BL21 DE3
T2 sequence (P35222 138-686): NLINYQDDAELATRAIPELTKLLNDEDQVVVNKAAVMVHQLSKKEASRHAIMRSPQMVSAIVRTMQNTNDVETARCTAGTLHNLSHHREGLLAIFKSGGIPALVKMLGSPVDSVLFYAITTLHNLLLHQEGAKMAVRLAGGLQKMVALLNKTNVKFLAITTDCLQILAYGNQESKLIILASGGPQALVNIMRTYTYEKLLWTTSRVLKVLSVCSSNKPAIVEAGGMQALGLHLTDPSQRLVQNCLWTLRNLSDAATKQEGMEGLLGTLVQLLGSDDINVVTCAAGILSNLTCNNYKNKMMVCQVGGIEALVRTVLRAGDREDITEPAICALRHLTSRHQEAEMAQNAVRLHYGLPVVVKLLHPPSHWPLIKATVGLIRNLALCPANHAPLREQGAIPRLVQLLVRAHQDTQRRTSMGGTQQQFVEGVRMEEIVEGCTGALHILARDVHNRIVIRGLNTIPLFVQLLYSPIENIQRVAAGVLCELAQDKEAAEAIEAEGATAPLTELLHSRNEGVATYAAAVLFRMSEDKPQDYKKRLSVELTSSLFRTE
Text: Human BCL9 (residues 350-375), N-terminally biotinylated human BCL9 (residues 350-375), N-terminally fluorescein-labeled human BCL9 (residues 350-375), and N-terminally biotinylated human E-cadherin (residues 824-877) were synthesized by InnoPep Inc. (San Diego, Calif., www.innopep.com). All synthesized peptides were purified by HPLC with purity >95%. The structures were validated by LC/MS. The sequences are shown in Table 2 (Ahx, 6-aminohexanoic acid).
The purity of the wild-type and mutant β-catenin proteins was all greater than 95% as determined by the SDS-PAGE gel analysis. Both the wild-type and mutant β-catenin proteins are stable under the testing conditions. Native non-denaturing gel electrophoresis was performed to confirm the homogeneity of the purified proteins. Experiments were performed in white opaque 384-well plates from PerkinElmer, and the samples were read on a Synergy 2 plate reader (Biotek) with a sensitivity setting of 200 using AlphaScreen protocol with excitation at 680 nm and emission at 570 nm. All dilutions were made in 1×assay buffer containing 25 mM HEPES (pH=7.0), 100 mM NaCl, 0.01% Triton X-100, and 0.1% BSA. […] The IC50 value was determined by nonlinear least-square analysis of GraphPad Prism 5.0. […]

[5] = tested on: Wnt target genes mRNA expression in SW480 cells; experiment: Quantitative real-time PCR, SW480 cells; type: cell-based, human; details: 24 h
[6] = tested on: canonical Wnt signaling in HEK293, SW480 and MDA-MB-231 cells; experiment: Wnt-responsive luciferase reporter assay (TOPFlash/FOPFlash); type: cell-based, human; details: HEK293, SW480, MDA-MB-231; 24 h
[7] = tested on: A549 and MCF10A cells; experiment: MTs cell viability assay, Wnt signaling-latent cells; type: cell-based, human; details: A549 and MCF10A vs Wnt-hyperactivated cancer cells
[8] = tested on: SW480, HCT116, HT29, MDA-MB-231 and MDA-MB-436 cells; experiment: MTs cell viability assay, cancer cells with hyperactivated Wnt signaling; type: cell-based, human; details: 72 h
[9] = tested on: β-catenin/BCL9 PPIs in HCT116 cells; experiment: Co-immunoprecipitation, β-catenin/BCL9; type: cell-based, human; details: 24 h
[10] = molecular target: T3, β-catenin/BCL9 protein-protein interactions (Homo sapiens, UniProt P35222); experiment: AlphaScreen competitive inhibition assay, wild-type β-catenin/BCL9; type: binding; details: comparison with named compound
T3 construct: C-terminally His6-tagged wild-type or mutant β-catenin (residues 138-686) proteins; made in house; host or cells: E. coli BL21 DE3
T3 sequence (P35222 138-686): T2 sequence (P35222 138-686)
Protocol: The purity of the wild-type and mutant β-catenin proteins was all greater than 95% as determined by the SDS-PAGE gel analysis. Both the wild-type and mutant β-catenin proteins are stable under the testing conditions. Native non-denaturing gel electrophoresis was performed to confirm the homogeneity of the purified proteins. Experiments were performed in white opaque 384-well plates from PerkinElmer, and the samples were read on a Synergy 2 plate reader (Biotek) with a sensitivity setting of 200 using AlphaScreen protocol with excitation at 680 nm and emission at 570 nm. All dilutions were made in 1×assay buffer containing 25 mM HEPES (pH=7.0), 100 mM NaCl, 0.01% Triton X-100, and 0.1% BSA. In the AlphaScreen competitive inhibition assay, 40 nM of C-terminally His6-tagged wild-type or mutant β-catenin (residues 138-686) proteins was incubated with 5 nM of N-terminal biotinylated human BCL9 26-mer (residues 350-375) for 30 min at 4° C., and then different concentrations of the tested inhibitors in the assay buffer were added to make a final volume of 20 μL. The mixture was incubated at 4° C. for 2 h. The donor and acceptor beads were added to a final concentration of 10 μg/mL in 25 μL of assay buffer. The mixture was incubated at 4° C. for 1 h. The IC50 value was determined by nonlinear least-square analysis of GraphPad Prism 5.0. […]

[11] = tested on: cyclin D1, c-myc, active β-catenin (ABC) and total β-catenin in SW480 cells; experiment: Western blot analysis, SW480 cells; type: cell-based, human; details: 24 h
[12] = tested on: HCT116 cells; experiment: Anchorage-independent growth (colony formation) assay; type: cell-based, human; details: b945 prints SW480 cells; method b884 and legend b52 HCT116; 18 d

O=C(Nc1ccc(O[C@H]2CCNC2)c(-c2ccc(F)cc2)c1)c1ccc(O[C@H]2CCNC2)c(-c2ccc(F)c(F)c2)c1 [Compound 21, (S)-3-((3′,4′-difluoro-5-((4′-fluoro-6-((S)-pyrrolidin-1-ium-3-yloxy)-[1,1′-biphenyl]-3-yl)carbamoyl)-[1,1′-biphenyl]-2-yl)oxy) pyrrolidin-1-ium chloride]
effect on β-catenin/E-cadherin PPIs in cells [1]: had no effect on β-catenin/E-cadherin PPIs
transcription of AXIN2, LGR5, LEF1, and cyclin D1 [2]: down-regulated the transcription of AXIN2, LGR5, LEF1, and cyclin D1 in dose-dependent manners
binding to BCL9 [3]: did not bind to BCL9
selectivity for β-catenin/BCL9 over β-catenin/E-cadherin PPIs (in words) [4]: more selective than carnosic acid
mRNA expression of Wnt target genes [5]: dose-dependent inhibition of mRNA expression of Wnt target genes
Renilla values and FOPFlash luciferase activity (controls) [6]: without reducing absolute Renilla values (internal controls) and affecting the FOPFlash luciferase
TOPFlash luciferase activity [6]: inhibit the TOPFlash luciferase
cell-based selectivity over Wnt signaling-latent cells [7]: exhibited cell-base selectivity over Wnt signaling-latent cells
inhibition of cell growth [8]: inhibited cell growth in dose-dependent manners
potency relative to carnosic acid [8]: more potent than carnosic acid
inhibition of β-catenin/BCL9 PPIs in cells [9]: inhibited β-catenin/BCL9 PPIs in a dose-dependent manner
relative inhibitory potency for β-catenin/BCL9 PPIs (in words) [10]: more potent than carnosic acid
E-cadherin-bound β-catenin [11]: had no effect on E-cadherin-bound β-catenin
activated β-catenin in the cell nucleus [11]: reduced activated β-catenin in the cell nucleus
protein expression levels of cyclin D1 and c-myc [11]: significantly reduced
anchorage-independent growth [12]: inhibited the anchorage-independent growth of SW480 cells in a dose-dependent manner
